Measurements published in the supplement of paper PMC6078165.
The reference is the same well before dosing, and untreated signal decays as well.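 Labels refer to human fibroblasts, largely primary: uterine (C12385, HUF), lung (H6013), bone (Hs27A), adrenal (HADF), skin (WS1), plus mammary HMF and breast cancer-associated Hs343T. Cancer lines are basal-like or mesenchymal-like triple-negative breast cancer. The paper counts as hits responses shifting over 3x the replicate standard deviation. The tissue of the other fibroblasts is not given here.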

Test system: MDAMB436
Assay: relative JC-1 red fluorescence (viability) vs pre-drug, coculture with fibroblast (fraction); higher = more viable cancer cells
Conditions: 1 µM
Procedure: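 JC-1 labelled TNBC cells cocultured 1:1 (1,500 cells each) with CellTrace Violet stained primary or stromal fibroblasts in 384-well plates in FluoroBrite medium, treated with one of 42 anticancer drugs at 0.1, 1, 10 or 100 uM. JC-1 red fluorescence (mitochondrial integrity in cancer cells only) was read by plate reader every 8 h for 72 h. Values are normalised to each well's pre-drug value. The stock of one drug was tenfold lower, so its dose labels may be too high.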

COc1cc([C@@H]2c3cc4c(cc3[C@@H](O[C@@H]3O[C@@H]5CO[C@@H](c6cccs6)O[C@H]5[C@H](O)[C@H]3O)[C@H]3COC(=O)[C@H]23)OCO4)cc(OC)c1O [Teniposide]
relative JC-1 red fluorescence
Conditions | 8 h | 16 h | 24 h | 32 h | 40 h | 48 h | 56 h | 64 h | 72 h
coculture fibroblast: C12385 | 0.737 | 0.7127 | 0.704 | 0.637 | 0.617 | 0.599 | 0.591 | 0.588 | 0.588
coculture fibroblast: H6013 | 0.844 | 0.846 | 0.858 | 0.871 | 0.898 | 0.887 | 0.794 | 0.758 | 0.761
coculture fibroblast: H6019 | 0.737 | 0.67805 | 0.668 | 0.601 | 0.577 | 0.566 | 0.534 | 0.517 | 0.497
coculture fibroblast: H6076 | 0.766 | 0.702 | 0.708 | 0.667 | 0.662 | 0.628 | 0.655 | 0.657 | 0.66
coculture fibroblast: H6231 | 0.708 | 0.681 | 0.736 | 0.654 | 0.648 | 0.63 | 0.634 | 0.629 | 0.623
coculture fibroblast: HADF | 0.8052 | 0.799 | 0.7886 | 0.774 | 0.7788 | 0.8385 | 0.774 | 0.78 | 0.751
coculture fibroblast: HCFa | 0.882 | 0.9039 | 0.91 | 0.91 | 0.927 | 0.818 | 0.761 | 0.83 | 0.798
coculture fibroblast: HCPF | 0.7505 | 0.7204 | 0.7609 | 0.7024 | 0.6924 | 0.6714 | 0.674 | 0.67 | 0.66
coculture fibroblast: HHSteC | 0.797 | 0.7902 | 0.7822 | 0.7558 | 0.7615 | 0.788 | 0.7418 | 0.731 | 0.692
coculture fibroblast: HMF | 0.761 | 0.7005 | 0.704 | 0.648 | 0.634 | 0.609 | 0.616 | 0.606 | 0.595
coculture fibroblast: HPFa | 0.8738 | 0.85582 | 0.8436 | 0.80057 | 0.8104 | 0.821 | 0.756 | 0.729 | 0.679
coculture fibroblast: HUF | 0.797 | 0.738 | 0.721 | 0.662 | 0.618 | 0.607 | 0.591 | 0.583 | 0.587
coculture fibroblast: Hs5 | 0.7798 | 0.75 | 0.772 | 0.728 | 0.734 | 0.698 | 0.736 | 0.741 | 0.749
coculture fibroblast: Hs27A | 0.797 | 0.7614 | 0.761 | 0.764 | 0.778 | 0.893 | 0.803 | 0.823 | 0.779
coculture fibroblast: Hs343T | 0.752 | 0.7 | 0.688 | 0.65 | 0.63 | 0.596 | 0.596 | 0.59 | 0.59
coculture fibroblast: WS1 | 0.758 | 0.703 | 0.709 | 0.639 | 0.614 | 0.602 | 0.595 | 0.582 | 0.578
